Among the targets are SPIB (UniProt Q01892); ETV5 (UniProt P41161); ELF4 (UniProt Q99607).
Holding throughout (test): DAPPL (digital affinity profiling via proximity ligation, sequencing)
What all share (conditions): 10 mM Tris-HCl pH 7.5, 50 mM NaCl, 1 mM DTT, 4% glycerol, room temperature, 30 min; GST-TFs on glutathione beads, 16-mer random dsDNA library, 0.1% …; high values mean tight binding; double strand, one strand shown; scale: fold enrichment (6-mer frequency, TF over GST control)

Chains of the proteins cited; added tags and fusions are not shown. Lines headed by an entry give the natural chain unless they say otherwise; changes in a name come on top.
UniProt Q01892: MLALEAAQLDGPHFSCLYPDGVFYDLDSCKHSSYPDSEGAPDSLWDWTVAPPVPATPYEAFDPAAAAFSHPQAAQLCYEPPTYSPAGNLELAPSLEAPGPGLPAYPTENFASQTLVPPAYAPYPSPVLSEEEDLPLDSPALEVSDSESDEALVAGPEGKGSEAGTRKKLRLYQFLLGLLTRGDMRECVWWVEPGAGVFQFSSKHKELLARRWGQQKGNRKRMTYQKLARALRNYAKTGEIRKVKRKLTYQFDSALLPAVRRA
UniProt P41161: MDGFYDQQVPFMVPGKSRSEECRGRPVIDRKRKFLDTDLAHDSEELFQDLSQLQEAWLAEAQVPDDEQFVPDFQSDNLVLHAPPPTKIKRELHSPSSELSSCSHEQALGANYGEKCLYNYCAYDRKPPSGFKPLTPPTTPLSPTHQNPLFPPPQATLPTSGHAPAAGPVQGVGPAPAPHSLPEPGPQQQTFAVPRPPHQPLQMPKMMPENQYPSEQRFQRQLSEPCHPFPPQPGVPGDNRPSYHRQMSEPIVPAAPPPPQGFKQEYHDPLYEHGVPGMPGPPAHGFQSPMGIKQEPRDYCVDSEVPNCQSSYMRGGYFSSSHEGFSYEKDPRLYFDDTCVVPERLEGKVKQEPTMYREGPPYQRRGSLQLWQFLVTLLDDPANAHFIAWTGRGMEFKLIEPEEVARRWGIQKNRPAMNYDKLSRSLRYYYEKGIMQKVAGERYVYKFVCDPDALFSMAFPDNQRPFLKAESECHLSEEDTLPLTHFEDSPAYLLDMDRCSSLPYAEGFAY
UniProt Q99607: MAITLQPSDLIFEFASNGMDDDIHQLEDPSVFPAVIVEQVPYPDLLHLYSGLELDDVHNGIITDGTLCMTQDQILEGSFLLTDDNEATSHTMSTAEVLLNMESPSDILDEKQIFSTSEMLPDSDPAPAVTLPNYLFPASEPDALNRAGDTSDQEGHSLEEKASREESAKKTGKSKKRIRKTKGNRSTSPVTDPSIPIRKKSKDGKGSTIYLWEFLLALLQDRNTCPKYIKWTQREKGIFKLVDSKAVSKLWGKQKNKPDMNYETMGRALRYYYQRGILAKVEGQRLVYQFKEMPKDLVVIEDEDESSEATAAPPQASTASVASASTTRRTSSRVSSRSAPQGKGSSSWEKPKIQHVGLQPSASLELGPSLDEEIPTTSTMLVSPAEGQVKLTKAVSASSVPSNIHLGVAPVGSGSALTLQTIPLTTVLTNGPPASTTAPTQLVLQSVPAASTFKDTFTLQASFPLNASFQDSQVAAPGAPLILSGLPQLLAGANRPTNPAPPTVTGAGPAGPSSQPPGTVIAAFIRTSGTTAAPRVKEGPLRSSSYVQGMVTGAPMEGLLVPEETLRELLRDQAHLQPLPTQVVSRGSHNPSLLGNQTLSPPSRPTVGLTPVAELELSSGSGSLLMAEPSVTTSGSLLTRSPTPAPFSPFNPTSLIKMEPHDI

In another assay the target is T1, FLI1 (UniProt Q01543).
T1 sequence: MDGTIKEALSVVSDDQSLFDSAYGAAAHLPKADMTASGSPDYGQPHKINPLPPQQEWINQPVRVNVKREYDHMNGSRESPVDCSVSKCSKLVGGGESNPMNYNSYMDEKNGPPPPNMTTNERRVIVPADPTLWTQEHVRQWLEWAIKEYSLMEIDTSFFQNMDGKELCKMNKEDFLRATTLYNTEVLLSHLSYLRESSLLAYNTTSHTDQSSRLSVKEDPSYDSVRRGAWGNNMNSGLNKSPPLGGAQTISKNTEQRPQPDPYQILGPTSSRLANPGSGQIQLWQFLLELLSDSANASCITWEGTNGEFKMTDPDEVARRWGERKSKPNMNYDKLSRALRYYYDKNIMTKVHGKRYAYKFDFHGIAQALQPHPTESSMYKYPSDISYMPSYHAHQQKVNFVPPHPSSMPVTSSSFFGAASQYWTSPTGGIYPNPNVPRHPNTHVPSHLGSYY

In the next assay the target is T2, EHF (UniProt Q9NZC4).
T2 sequence: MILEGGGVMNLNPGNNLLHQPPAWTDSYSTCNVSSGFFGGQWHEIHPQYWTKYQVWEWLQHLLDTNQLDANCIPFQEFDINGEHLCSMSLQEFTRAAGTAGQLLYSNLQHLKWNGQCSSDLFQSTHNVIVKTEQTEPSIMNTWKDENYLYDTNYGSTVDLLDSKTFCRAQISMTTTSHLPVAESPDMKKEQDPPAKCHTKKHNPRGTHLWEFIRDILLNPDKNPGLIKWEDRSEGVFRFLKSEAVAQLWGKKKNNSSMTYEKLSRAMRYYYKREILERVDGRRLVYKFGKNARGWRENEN

Another assay addresses T3, ETV2 (UniProt O00321).
T3 sequence: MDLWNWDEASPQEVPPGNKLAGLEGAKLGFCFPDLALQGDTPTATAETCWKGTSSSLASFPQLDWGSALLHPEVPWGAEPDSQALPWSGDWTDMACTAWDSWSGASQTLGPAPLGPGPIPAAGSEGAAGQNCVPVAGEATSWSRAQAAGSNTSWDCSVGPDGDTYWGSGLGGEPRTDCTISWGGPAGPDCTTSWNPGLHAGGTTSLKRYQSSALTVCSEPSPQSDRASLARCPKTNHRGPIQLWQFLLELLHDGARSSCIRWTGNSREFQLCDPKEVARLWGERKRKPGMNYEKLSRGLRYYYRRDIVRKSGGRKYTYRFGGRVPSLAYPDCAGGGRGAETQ

The next assay deals with T4, ETV3L (UniProt Q6ZN32).
T4 sequence: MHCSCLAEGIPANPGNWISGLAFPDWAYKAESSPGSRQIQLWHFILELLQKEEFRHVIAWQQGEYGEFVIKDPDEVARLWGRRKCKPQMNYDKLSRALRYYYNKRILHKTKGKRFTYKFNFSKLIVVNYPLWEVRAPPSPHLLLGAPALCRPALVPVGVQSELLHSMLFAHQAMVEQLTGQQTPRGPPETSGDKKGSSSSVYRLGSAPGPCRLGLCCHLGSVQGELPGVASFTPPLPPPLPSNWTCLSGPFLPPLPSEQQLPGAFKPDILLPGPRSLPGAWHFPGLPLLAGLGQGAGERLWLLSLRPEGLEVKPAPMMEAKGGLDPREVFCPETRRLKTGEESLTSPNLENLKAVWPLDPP

The list shows a part of the results, in another mix than the full data. At the low end of the ranking, values are background and their order means little.

As to GGGTTA, the binding signal came out at 0.861 with FLI1; 0.818 with EHF; 0.792 in the assay with SPIB; 0.802 with ETV5; 0.808 with ELF4; 0.831 in the assay with ETV2. This sequence also displayed a binding signal in the assay with ETV3L of 0.802.
Regarding CCGTGG, the binding signal with FLI1 amounted to 0.381; in the assay with EHF it was 0.415; with SPIB, 0.448; with ETV5, 0.406; with ELF4, 0.409; in the assay with ETV2 it was 0.387. The sequence further gave a binding signal in the assay with ETV3L of 0.395.
GCGAGA: the binding signal with FLI1 was found to be 0.52; in the assay with EHF, 0.505; with SPIB it was 0.5; in the assay with ETV5, 0.518; in the assay with ELF4, 0.489; with ETV2, 0.577. Further, the binding signal in the assay with ETV3L turned out to be 0.515.
With AACGAG, the binding signal is 0.824 with FLI1; 0.755 with EHF; 0.848 in the assay with SPIB; 0.767 with ETV5; 0.768 with ELF4; 0.743 with ETV2. In the assay with ETV3L, this sequence showed a binding signal of 0.714.
As to GGACCC, the binding signal in the assay with FLI1 was determined as 0.871; with EHF, 0.836; in the assay with SPIB, 0.799; with ETV5, 0.889; with ELF4, 0.813; in the assay with ETV2, 0.888. The binding signal with ETV3L came out at 0.837.
As for GGCAGA, the binding signal with FLI1 was found to be 0.644; with EHF it was 0.646; with SPIB, 0.602; with ETV5, 0.651; in the assay with ELF4 it was 0.64; with ETV2 it was 0.779. Further, in the assay with ETV3L, the binding signal turned out to be 0.639.
Consider CAGGCA, for which the binding signal with FLI1 worked out at 0.768; with EHF, 0.736; with SPIB, 0.748; in the assay with ETV5, 0.738; with ELF4, 0.741; in the assay with ETV2, 0.725. For the same sequence, the binding signal with ETV3L stood at 0.759.
Take CCTGAG: the binding signal came to 0.861 in the assay with FLI1; 0.764 with EHF; 0.79 with SPIB; 0.807 with ETV5; 0.844 with ELF4; 0.858 in the assay with ETV2. In the assay with ETV3L, the binding signal amounted to 0.836.
For the sequence GTAGGC, the binding signal with FLI1 came out at 0.73; with EHF, 0.698; with SPIB, 0.664; with ETV5, 0.713; in the assay with ELF4, 0.741; in the assay with ETV2, 0.886. Further, the binding signal with ETV3L was determined as 0.705.
As for TGAGAT, the binding signal amounted to 0.687 with FLI1; 0.638 with EHF; 0.631 with SPIB; 0.701 with ETV5; 0.659 with ELF4; 0.683 in the assay with ETV2. The sequence also displayed a binding signal with ETV3L of 0.715.
For AGTTCG, the binding signal stood at 0.717 with FLI1; 0.691 in the assay with EHF; 0.744 in the assay with SPIB; 0.748 in the assay with ETV5; 0.767 with ELF4; 0.711 with ETV2. Further, the binding signal with ETV3L amounted to 0.707.
Turning to CAGAGG, the binding signal with FLI1 stood at 0.618; with EHF, 0.618; with SPIB, 0.578; with ETV5 it was 0.612; with ELF4 it was 0.64; with ETV2, 0.696. The same sequence showed a binding signal with ETV3L of 0.598.
Consider AGTCTA, for which the binding signal in the assay with FLI1 was determined as 0.765; in the assay with EHF it was 0.748; with SPIB, 0.739; in the assay with ETV5, 0.699; in the assay with ELF4, 0.703; with ETV2, 0.61. The sequence also showed a binding signal with ETV3L of 0.702.
Regarding GAGGTC, the binding signal in the assay with FLI1 was 0.646; in the assay with EHF, 0.616; with SPIB it was 0.563; with ETV5 it was 0.634; with ELF4, 0.618; with ETV2, 0.601. In addition, the binding signal in the assay with ETV3L is 0.611.
In the case of GGGTTG, the binding signal came out at 0.877 with FLI1; 0.886 in the assay with EHF; 0.78 in the assay with SPIB; 0.862 with ETV5; 0.836 in the assay with ELF4; 0.765 with ETV2. Also, the binding signal with ETV3L was 0.884.
GAGAGC: the binding signal with FLI1 turned out to be 0.408; with EHF, 0.381; in the assay with SPIB, 0.323; in the assay with ETV5, 0.388; in the assay with ELF4, 0.385; with ETV2, 0.352. In the assay with ETV3L, the binding signal is 0.369.
In the case of CACGTC, the binding signal with FLI1 was 0.894; with EHF it was 0.816; with SPIB it was 0.889; with ETV5 it was 0.897; in the assay with ELF4, 0.896; with ETV2, 0.945. In the assay with ETV3L, this sequence returned a binding signal of 0.896.
For the sequence GGCATC, the binding signal is 0.861 with FLI1; 0.862 with EHF; 0.906 in the assay with SPIB; 0.888 in the assay with ETV5; 0.846 in the assay with ELF4; 0.907 with ETV2. Also, the binding signal in the assay with ETV3L is 0.932.
TGTGGG: the binding signal with FLI1 is 0.84; with EHF it was 0.812; with SPIB, 0.83; with ETV5 it was 0.778; with ELF4, 0.792; in the assay with ETV2 it was 0.649. In the assay with ETV3L, this sequence came in with a binding signal of 0.813.
Turning to CAGACG, the binding signal amounted to 0.488 with FLI1; 0.493 with EHF; 0.464 with SPIB; 0.448 with ETV5; 0.49 with ELF4; 0.551 with ETV2. The binding signal in the assay with ETV3L came to 0.461.
For the sequence TGAGGA, the binding signal turned out to be 0.691 with FLI1; 0.708 with EHF; 0.666 with SPIB; 0.667 in the assay with ETV5; 0.664 in the assay with ELF4; 0.644 with ETV2. Besides, the binding signal in the assay with ETV3L stood at 0.66.
